PubChem BioAssay AID1159584 – Peter MacCallum Cancer Centre – 2016
This is an unselected part of about 18,000 reagents tested. Further read-outs or replicates are left out here. No sequences are given here. Not given: the amount of reagent, the time to read-out.

Purpose: 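Genes that CDH1-null MCF10A cells selectively depend on to survive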 (primary screen)
Cell system: human MCF10A breast epithelial cells, parental and CDH1-null
Knock-down reagent: siRNA against human genes
Measured: 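ATP luminescence (CellTiter-Glo) viability per line relative to mean mock wells over all plates, and the ratio of CDH1-null to parental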
Scale: CDH1-null / parental viability ratio: higher = CDH1-null cells survive relatively better than parental

| target | CDH1-null / parental viability ratio |
| --- | --- |
| IER3 | 1.14 |
| CYP8B1 | 0.73 |
| SPATA18 | 0.86 |
| TRIOBP | 1.12 |
| POR | 0.95 |
| PODXL | 1.02 |
| ALG1 | 0.91 |
| YIPF1 | 0.94 |
| LYZL4 | 1.34 |
| REEP6 | 1.21 |
